For one molecule, binding results are on record in publication doi:10.1101/2023.07.28.550789.

Results are given in words; binding and its absence hold for the method and conditions named. Binding seen in cells or lysates may run through a third protein. Sequences can lack the tags named with a protein.

The target of the experiment is T1, Strep-RnpM (Strep-tagged RnpM, plasmid pGP3650) (B. subtilis 168) (UniProt P32728).
T1 sequence: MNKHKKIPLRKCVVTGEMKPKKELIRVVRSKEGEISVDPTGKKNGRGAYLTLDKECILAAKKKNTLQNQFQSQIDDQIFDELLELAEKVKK
As to the kind of experiment: pull-down.

B1: His-RnpA (recombinant His-tagged RnpA from B. subtilis, plasmid pQE30-His-RnpA) (protein, UniProt P25814 2-116)
chain: KKRNRLKKNEDFQKVFKHGTSVANRQFVLYTLDQPENDELRVGLSVSKKIGNAVMRNRIKRLIRQAFLEEKERLKEKDYIIIARKPASQLTYEETKKSLQHLFRKSSLYKKSSSK
In the case of B1, the binding entry is recorded as “no binding”.
